Test results published in patent publication US20080221127A1, “PPAR ACTIVE COMPOUNDS” (Plexxikon Inc, priority 2007, published 2008).
Some entries share one result that the patent states for a list of compounds. At least one structure is not confirmed: it was looked up by name or label, or the drawing left a doubt.

System: PPARα, PPARγ or PPARδ
Experiment: PPAR activity assays (biochemical and cell based)
Conditions: at least one of these assays, or a similar assay, for at least one of PPARα

`COc1cc(CC(=O)O)cc(S(=O)(=O)c2cccc(-c3ccc(F)cc3)c2)c1` [P-0018, [3-(4′-Fluoro-biphenyl-3-sulfonyl)-5-methoxy-phenyl]-acetic acid] was tested. Which EC50 did it give?
The EC50 was at most 1000 nM.

For `O=C(O)Cc1cccc(Oc2cccc(-c3cccc(Cl)c3Cl)c2)c1` [P-0116, [3-(2′,3′-Dichloro-biphenyl-3-yloxy)-phenyl]-acetic acid], which EC50 is on record?
The EC50 was at most 1000 nM.

How did the EC50 turn out when `CCOc1ccc(-c2cccc(S(=O)(=O)c3cccc(CC(=O)O)c3)c2)c(Cl)c1` [P-0084, [3-(2′-Chloro-4′-ethoxy-biphenyl-3-sulfonyl)-phenyl]-acetic acid] was run?
Its EC50 is at most 1000 nM.

`COc1cc(CC(=O)O)cc(S(=O)(=O)c2cccc(-c3ccc(Cl)cc3)c2)c1` [P-0016, [3-(4′-chloro-biphenyl-3-sulfonyl)-5-methoxy-phenyl]-acetic acid] was tested. Which EC50 did it give?
Its EC50 is at most 1000 nM.

How did the EC50 turn out when `COc1cc(CC(=O)O)cc(Oc2cccc(-c3ccc(OC)cc3F)c2)c1` [P-0102, [3-(2′-Fluoro-4′-methoxy-biphenyl-3-yloxy)-5-methoxy-phenyl]-acetic acid] was run?
The EC50 was at most 1000 nM.

For `COc1cc(CC(=O)O)cc(S(=O)(=O)c2cccc(-c3cccc(C(F)(F)F)c3)c2)c1` [P-0024, [3-Methoxy-5-(3′-trifluoromethyl-biphenyl-3-sulfonyl)-phenyl]-acetic acid], which EC50 is on record?
Its EC50 is at most 1000 nM.

How did the EC50 turn out when `COc1cc(CC(=O)O)cc(Oc2cccc(-c3ccc(Cl)cc3)c2)c1` [P-0039, [3-(4′-Chloro-biphenyl-3-yloxy)-5-methoxy-phenyl]-acetic acid] was run?
The EC50 was at most 1000 nM.

For `O=C(O)Cc1cccc(Oc2cccc(-c3ccc(C(F)(F)F)cc3F)c2)c1` [P-0079, [3-(2′-Fluoro-4′-trifluoromethyl-biphenyl-3-yloxy)-phenyl]-acetic acid], which EC50 is on record?
Its EC50 is at most 1000 nM.

How did the EC50 turn out when `Cc1ccc(-c2cccc(S(=O)(=O)c3cccc(CC(=O)O)c3)c2)cc1F` [P-0036, [3-(3′-Fluoro-4′-methyl-biphenyl-3-sulfonyl)-phenyl]-acetic acid] was run?
The EC50 was at most 1000 nM.

Which EC50 does the source give for `COc1cc(CC(=O)O)cc(Oc2cccc(-c3cc(Cl)ccc3Cl)c2)c1` [P-0095, [3-(2′,5′-Dichloro-biphenyl-3-yloxy)-5-methoxy-phenyl]-acetic acid] here?
Its EC50 is at most 1000 nM.

Which EC50 does the source give for `COc1cc(CC(=O)O)cc(S(=O)(=O)c2cccc(-c3cnn(CCC(C)C)c3)c2)c1` [P-0003, (3-Methoxy-5-{3-[1-(3-methyl-butyl)-1H-pyrazol-4-yl]-benzenesulfonyl}-phenyl)-acetic acid] here?
The EC50 was at most 1000 nM.

How did the EC50 turn out when `O=C(O)Cc1cccc(Oc2cccc(-c3ccc(OC(F)(F)F)cc3)c2)c1` [P-0058, [3-(4′-Trifluoromethoxy-biphenyl-3-yloxy)-phenyl]-acetic acid] was run?
Its EC50 is at most 1000 nM.

How did the EC50 turn out when `O=C(O)Cc1cccc(Oc2cccc(-c3ccc(F)cc3Cl)c2)c1` [P-0120, [3-(2′-Chloro-4′-fluoro-biphenyl-3-yloxy)-phenyl]-acetic acid] was run?
Its EC50 is at most 1000 nM.

For `O=C(O)Cc1cccc(S(=O)(=O)c2cccc(-c3cccc(F)c3F)c2)c1` [P-0082, [3-(2′,3′-Difluoro-biphenyl-3-sulfonyl)-phenyl]-acetic acid], which EC50 is on record?
The EC50 was at most 1000 nM.

Which EC50 does the source give for `COc1cc(CC(=O)O)cc(Oc2cccc(-c3ccc(C)c(F)c3)c2)c1` [P-0048, [3-(3′-Fluoro-4′-methyl-biphenyl-3-yloxy)-5-methoxy-phenyl]-acetic acid] here?
The EC50 was at most 1000 nM.

How did the EC50 turn out when `O=C(O)Cc1cccc(Oc2cccc(-c3ccc(Cl)cc3F)c2)c1` [P-0076, [3-(4′-Chloro-2′-fluoro-biphenyl-3-yloxy)-phenyl]-acetic acid] was run?
The EC50 was at most 1000 nM.

`COc1cc(CC(=O)O)cc(Oc2cccc(-c3cccc(C(F)(F)F)c3)c2)c1` [P-0047, [3-Methoxy-5-(3′-trifluoromethyl-biphenyl-3-yloxy)-phenyl]-acetic acid] was tested. Which EC50 did it give?
Its EC50 is at most 1000 nM.

With `COc1cc(CC(=O)O)cc(S(=O)(=O)c2cccc(-c3ccc(C)c(F)c3)c2)c1` [P-0025, [3-(3′-Fluoro-4′-methyl-biphenyl-3-sulfonyl)-5-methoxy-phenyl]-acetic acid] as the molecule, how does the EC50 read?
Its EC50 is at most 1000 nM.

For `O=C(O)Cc1cccc(S(=O)(=O)c2cccc(-c3ccc(C(F)(F)F)cc3Cl)c2)c1` [P-0094, [3-(2′-Chloro-4′-trifluoromethyl-biphenyl-3-sulfonyl)-phenyl]-acetic acid], which EC50 is on record?
Its EC50 is at most 1000 nM.

`O=C(O)Cc1cccc(Oc2cccc(-c3ccc(F)c(F)c3)c2)c1` [P-0121, [3-(3′,4′-Difluoro-biphenyl-3-yloxy)-phenyl]-acetic acid] was tested. Which EC50 did it give?
Its EC50 is at most 1000 nM.

`COc1cc(CC(=O)O)cc(S(=O)(=O)c2cccc(-c3ccc(OC)cc3F)c2)c1` [P-0063, [3-(2′-Fluoro-4′-methoxy-biphenyl-3-sulfonyl)-5-methoxy-phenyl]-acetic acid] was tested. Which EC50 did it give?
The EC50 was at most 1000 nM.

Which EC50 does the source give for `COc1cc(CC(=O)O)cc(S(=O)(=O)c2cccc(-c3cnn(CC(C)C)c3)c2)c1` [P-0004, {3-[3-(1-Isobutyl-1H-pyrazol-4-yl)-benzenesulfonyl]-5-methoxy-phenyl}-acetic acid] here?
The EC50 was at most 1000 nM.

With `O=C(O)Cc1cccc(S(=O)(=O)c2cccc(-c3ccc(C(F)(F)F)cc3F)c2)c1` [P-0093, [3-(2′-fluoro-4′-trifluoromethyl-biphenyl-3-sulfonyl)-phenyl]-acetic acid] as the molecule, how does the EC50 read?
The EC50 was at most 1000 nM.

For `Cc1cc(Cl)ccc1-c1cccc(Oc2cccc(CC(=O)O)c2)c1` [P-0119, [3-(4′-Chloro-2′-methyl-biphenyl-3-yloxy)-phenyl]-acetic acid], which EC50 is on record?
The EC50 was at most 1000 nM.

For `CCOc1ccc(-c2cccc(Oc3cc(CC(=O)O)cc(OC)c3)c2)c(Cl)c1` [P-0105, [3-(2′-Chloro-4′-ethoxy-biphenyl-3-yloxy)-5-methoxy-phenyl]-acetic acid], which EC50 is on record?
The EC50 was at most 1000 nM.

With `COc1cc(CC(=O)O)cc(Oc2cccc(-c3cccc(Cl)c3Cl)c2)c1` [P-0099, [3-(2′,3′-Dichloro-biphenyl-3-yloxy)-5-methoxy-phenyl]-acetic acid] as the molecule, how does the EC50 read?
The EC50 was at most 1000 nM.

`O=C(O)Cc1cccc(S(=O)(=O)c2cccc(-c3ccc(F)cc3)c2)c1` [P-0030, [3-(4′-Fluoro-biphenyl-3-sulfonyl)-phenyl]-acetic acid] was tested. Which EC50 did it give?
The EC50 was at most 1000 nM.

Which EC50 does the source give for `COc1cc(CC(=O)O)cc(S(=O)(=O)c2cccc(-c3ccc(C(F)(F)F)cc3F)c2)c1` [P-0092, [3-(2′-Fluoro-4′-trifluoromethyl-biphenyl-3-sulfonyl)-5-methoxy-phenyl]-acetic acid] here?
Its EC50 is at most 1000 nM.

How did the EC50 turn out when `COc1cc(CC(=O)O)cc(S(=O)(=O)c2cccc(-c3cccc(F)c3)c2)c1` [P-0021, [3-(3′-Fluoro-biphenyl-3-sulfonyl)-5-methoxy-phenyl]-acetic acid] was run?
Its EC50 is at most 1000 nM.

`COc1cc(CC(=O)O)cc(S(=O)(=O)c2cccc(-c3cccc(OC(F)(F)F)c3)c2)c1` [P-0022, [3-Methoxy-5-(3′-trifluoromethoxy-biphenyl-3-sulfonyl)-phenyl]-acetic acid] was tested. Which EC50 did it give?
The EC50 was at most 1000 nM.

Which EC50 does the source give for `COc1cc(CC(=O)O)cc(Oc2cccc(-c3ccc(Cl)cc3Cl)c2)c1` [P-0096, [3-(2′,4′-Dichloro-biphenyl-3-yloxy)-5-methoxy-phenyl]-acetic acid] here?
The EC50 was at most 1000 nM.

With `COc1cc(CC(=O)O)cc(Oc2cccc(-c3ccc(F)cc3Cl)c2)c1` [P-0106, [3-(2′-Chloro-4′-fluoro-biphenyl-3-yloxy)-5-methoxy-phenyl]-acetic acid] as the molecule, how does the EC50 read?
Its EC50 is at most 1000 nM.

How did the EC50 turn out when `COc1cc(CC(=O)O)cc(S(=O)(=O)c2cccc(-c3ccc(OC(F)(F)F)cc3)c2)c1` [P-0023, [3-Methoxy-5-(4′-trifluoromethoxy-biphenyl-3-sulfonyl)-phenyl]-acetic acid] was run?
Its EC50 is at most 1000 nM.
